Results are given in words; binding and its absence hold for the method and conditions named. In cells and extracts the contact can be indirect. Some results given as binding are weak or reduced against the parent protein; the word gives no strength. Tags and fused reporters may be left off the sequences shown.
Legend:
[1] = target: T1, PDK1-HA (ectopic PDK1) (human) (UniProt O15530); assay: co-immunoprecipitation, 293T cells transfected with PPP2R2B-Myc and PDK1-HA (FIG. 6A)
T1 sequence (looked up): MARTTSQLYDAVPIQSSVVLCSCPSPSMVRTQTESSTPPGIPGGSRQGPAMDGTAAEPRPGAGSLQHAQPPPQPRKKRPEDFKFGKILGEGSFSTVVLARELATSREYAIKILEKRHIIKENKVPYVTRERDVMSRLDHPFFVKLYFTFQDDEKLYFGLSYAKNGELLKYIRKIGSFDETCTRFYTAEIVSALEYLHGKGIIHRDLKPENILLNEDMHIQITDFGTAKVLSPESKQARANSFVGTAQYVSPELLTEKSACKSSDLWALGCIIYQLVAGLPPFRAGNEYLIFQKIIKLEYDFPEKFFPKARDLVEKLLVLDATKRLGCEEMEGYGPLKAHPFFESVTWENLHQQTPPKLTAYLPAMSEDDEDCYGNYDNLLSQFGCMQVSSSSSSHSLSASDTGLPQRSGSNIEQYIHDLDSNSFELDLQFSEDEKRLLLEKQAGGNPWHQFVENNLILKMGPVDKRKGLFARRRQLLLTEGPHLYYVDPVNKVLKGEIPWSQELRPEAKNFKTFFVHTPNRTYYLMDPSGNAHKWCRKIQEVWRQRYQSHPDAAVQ

Sequences of proteins named here, by UniProt entry; tags and fusion partners are left off. Residues count along the entry.
UniProt P30153, residues 2-589: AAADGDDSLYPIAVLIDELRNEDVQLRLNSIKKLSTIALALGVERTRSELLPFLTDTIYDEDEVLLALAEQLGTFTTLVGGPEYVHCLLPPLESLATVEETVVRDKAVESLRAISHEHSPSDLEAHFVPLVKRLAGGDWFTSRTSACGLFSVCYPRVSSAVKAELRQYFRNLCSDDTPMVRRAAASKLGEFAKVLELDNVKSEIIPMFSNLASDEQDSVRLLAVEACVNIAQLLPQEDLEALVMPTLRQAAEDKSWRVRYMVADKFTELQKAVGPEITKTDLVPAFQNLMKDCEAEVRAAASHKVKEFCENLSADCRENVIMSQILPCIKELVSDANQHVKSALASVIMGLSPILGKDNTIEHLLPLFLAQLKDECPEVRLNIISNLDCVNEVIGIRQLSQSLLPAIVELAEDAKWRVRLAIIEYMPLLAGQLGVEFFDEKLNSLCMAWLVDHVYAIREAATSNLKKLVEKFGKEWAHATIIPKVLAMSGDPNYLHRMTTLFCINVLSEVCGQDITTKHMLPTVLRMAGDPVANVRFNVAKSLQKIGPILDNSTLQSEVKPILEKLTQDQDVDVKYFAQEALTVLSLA
UniProt P67775: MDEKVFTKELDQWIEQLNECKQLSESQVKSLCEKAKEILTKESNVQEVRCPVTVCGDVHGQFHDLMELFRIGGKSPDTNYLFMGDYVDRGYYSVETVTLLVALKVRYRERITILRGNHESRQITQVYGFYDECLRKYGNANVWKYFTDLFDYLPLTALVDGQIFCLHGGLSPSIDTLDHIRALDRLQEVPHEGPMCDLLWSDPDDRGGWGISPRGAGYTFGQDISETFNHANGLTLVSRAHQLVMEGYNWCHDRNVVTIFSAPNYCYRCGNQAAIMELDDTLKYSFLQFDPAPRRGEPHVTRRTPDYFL

[2] = target: PP2A scaffolding A subunit (human) (UniProt P30153); assay: co-immunoprecipitation with anti-Myc tag antibody, DLD1-PPP2R2B cells treated with Dox
[3] = target: PP2A catalytic C subunit (human) (UniProt P67775); assay: as above
endogenous PDK1 (human) [4] = target: T2, endogenous PDK1 (human) (UniProt O15530); assay: co-immunoprecipitation, DLD1-PPP2R2B cells (FIG. 6B)
T2 sequence (looked up): T1 sequence (looked up)

[5] = target: T1, PDK1-HA (ectopic PDK1) (human); assay: reciprocal co-immunoprecipitation (anti-HA, anti-Myc tag), co-transfected 293T cells
endogenous PDK1 (human) [6] = target: T2, endogenous PDK1 (human); assay: co-immunoprecipitation (anti-PDK1, anti-Myc tag), DLD1-PPP2R2B cells treated with Dox
endogenous PDK1 (human) [7] = target: T2, endogenous PDK1 (human); assay: conclusion from co-immunoprecipitation and membrane fractionation in DLD1-PPP2R2B cells

binding [1]: binds
binding [2]: binds
binding [3]: binds
binding (endogenous PDK1 (human) [4]): binds
binding [5]: binds
binding (endogenous PDK1 (human) [6]): binds
binding (endogenous PDK1 (human) [7]): binds
B1: Myc-tagged PPP2R2B (PPP2R2B-Myc) (protein, human, UniProt Q00005 1-443, looked up, not shown: small tags and cut ends)
chain: MEEDIDTRKINNSFLRDHSYATEADIISTVEFNHTGELLATGDKGGRVVIFQREQESKNQVHRRGEYNVYSTFQSHEPEFDYLKSLEIEEKINKIRWLPQQNAAYFLLSTNDKTVKLWKVSERDKRPEGYNLKDEEGRLRDPATITTLRVPVLRPMDLMVEATPRRVFANAHTYHINSISVNSDYETYMSADDLRINLWNFEITNQSFNIVDIKPANMEELTEVITAAEFHPHHCNTFVYSSSKGTIRLCDMRASALCDRHTKFFEEPEDPSNRSFFSEIISSISDVKFSHSGRYIMTRDYLTVKVWDLNMENRPIETYQVHDYLRSKLCSLYENDCIFDKFECVWNGSDSVIMTGSYNNFFRMFDRNTKRDVTLEASRENSKPRAILKPRKVCVGGKRRKDEISVDSLDFSKKILHTAWHPSENIIAVAATNNLYIFQDKVN

Reference: US9249466B2, “Methods and compositions for treating cancer” (Agency for Science, Technology and Research, priority 2010, dated 2016)
